Test results published in US20220073557A1, “FLUORINATED BILE ACIDS” (NZP UK LIMITED, priority 2018, published 2022).
At least one structure is not confirmed: it was looked up by name or label, or the drawing left a doubt.

Test system: sporadic PD patient fibroblast lines
Assay: Seahorse assay (oxygen consumption, extracellular acidification rate) in sPD fibroblasts
Assay type: cell-based, human
Description: Fibroblasts are plated into Seahorse 24 well plates with 50,000 cells per well. Cells are left to attach for 2 days. Media is changed to Seahorse DMEM media with glucose and sodium pyruvate and left to equilibrate at 37 degrees normal air CO2 for 1 hour. The plate is entered into the Seahorse machine and run on a program of mix (2 minutes), wait (3 minutes) and measure (3 minutes). After three measurements of basal respiration and ECAR; 0.5 μM oligomycin is injected after which another three measurements are taken; then 0.5 μM of FCCP is injected and three measurements taken and finally 1 μM rotenone is injected and three measurements taken. After all measurements are complete, cells are stained with 10 μM Hoescht and imaged using the InCell to count the number of cells per well for normalisation. This classical ritochondrial stress test experimental protocol allows us to calculate the basal mitochondrial respiration, ATP linked respiration (the amount which is coupled to ATP generation), the maximal and spare respiratory capacity, the non-mitochondrial respiration rate and the extracellular acidification rate which is a proxy measure of glycosolysis.

C[C@H](CCC(=O)O)[C@H]1CC[C@H]2[C@@H]3[C@@H](O)C[C@@H]4C[C@H](O)CC[C@]4(C)[C@H]3CC[C@]12C [UDCA, ursodeoxycholic acid, reference compound]
Mitochondrial respiration (basal, maximal and ATP linked respiration; oxygen consumption) (6 sPD fibroblast lines, dosed at EC90 (UDCA 100 nM, Compound 7 50 nM), FIG. 1A-1C): not improved | Extracellular acidification rate (ECAR, proxy measure of glycolysis) (6 sPD fibroblasts, FIG. 2): not altered
